Results are given in words; binding and its absence hold for the method and conditions named. Some binding calls cover weakened binding; strength is not graded here.
Molecular target: human Akt2 (Akt2/PAS2-1) (human) (UniProt P31751)
Assay: yeast two-hybrid, beta-Gal lifting assay (beta-Gal positive at 3h)

Protein sequences, listed by entry. Tags and fused reporters are not part of them.
UniProt P31751: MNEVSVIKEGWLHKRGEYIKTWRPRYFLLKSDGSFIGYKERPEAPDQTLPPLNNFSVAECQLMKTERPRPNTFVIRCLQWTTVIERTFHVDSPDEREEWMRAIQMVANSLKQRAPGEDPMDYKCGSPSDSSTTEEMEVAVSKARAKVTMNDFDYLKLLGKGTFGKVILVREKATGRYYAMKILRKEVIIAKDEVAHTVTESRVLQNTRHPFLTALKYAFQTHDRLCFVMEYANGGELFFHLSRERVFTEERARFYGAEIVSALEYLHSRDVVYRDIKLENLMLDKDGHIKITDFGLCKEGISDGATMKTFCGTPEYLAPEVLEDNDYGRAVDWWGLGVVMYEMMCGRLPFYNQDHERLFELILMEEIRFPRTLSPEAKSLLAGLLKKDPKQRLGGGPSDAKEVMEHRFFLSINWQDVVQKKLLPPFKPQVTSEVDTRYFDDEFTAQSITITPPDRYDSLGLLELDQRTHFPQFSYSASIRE
UniProt P56279: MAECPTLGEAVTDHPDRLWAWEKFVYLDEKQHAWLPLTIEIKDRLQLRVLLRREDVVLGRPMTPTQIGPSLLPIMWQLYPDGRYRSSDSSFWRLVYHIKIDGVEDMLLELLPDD

binding: binds
Substance: wild-type TCL1 (human, full length) (from UniProt P56279 1-114)

Reference: US20120034651A1
